Source: PubChem BioAssay AID1259285 (Sanger Institute, 2017)
Screen: 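Kinases needed for HCC56 growth and kinases whose loss boosts drug effects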 (primary screen). Cell system: human HCC56 colorectal cancer cells. Reagent: siRNA pool against human genes. Conditions: DMSO vehicle, or anchor drug BYL719 at 1 µM, cetuximab at 5 µg/ml, or trametinib at 10 nM. Detection: 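Viability as a ratio to non-targeting pool wells, averaged over replicates and turned into a robust z-score; synergy scores with BYL719, cetuximab or trametinib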. Scale: viability robust z-score, no drug: higher = more viable cells, weaker knock-down effect; viability vs non-targeting pool, no drug: higher = more viable cells; synergy score with BYL719: higher = stronger combined killing with BYL719; synergy score with cetuximab: higher = stronger combined killing with cetuximab; synergy score with trametinib: higher = stronger combined killing with trametinib. Rule for the call: 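Essential when the drug-free viability robust z-score falls below -3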. Meaning of the calls: active = essential without drug; inactive = no change without drug.
Here is an unselected part of 794 reagents. 20 of them (2.5%) count as active. 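Calls rest on the drug-free arm alone and ignore synergy scores; viability ratios seem to be capped at 1.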 Entries without a mark were called inactive. Not stated in the record: the amount of reagent, the time to read-out.

gene	viability robust z-score, no drug	viability vs non-targeting pool, no drug	synergy score with BYL719	synergy score with cetuximab	synergy score with trametinib
TTBK1	0.458	1	-0.0371	-0.142	0.0638
MAP2K1	0.458	1	-0.0726	-0.13	-0.151
NEK4	0.458	1	-0.0462	-0.142	-0.000349
COQ8B	0.458	1	-0.157	0.194	-0.0136
CSNK1G3	0.458	1	-0.159	-0.142	-0.0286
EPHA4	0.458	1	0.0749	0.0251	0.0329
CDKN1B	0.458	1	0.101	0.00214	0.00298
PACSIN1	0.458	1	-0.162	-0.142	-0.105
CAMK1D	0.458	1	0.0075	-0.0706	0.00641
PRPS2	0.458	1	0.0484	0.0278	0.0572
PRPS1L1	0.458	1	-0.101	-0.142	-0.0439
SOX9	0.458	1	-0.0957	-0.134	0.0122
CMPK1	0.458	1	-0.145	-0.0252	-0.0376
EXOSC10	0.458	1	-0.162	-0.0961	-0.0839
EPHA2	0.458	1	-0.112	-0.142	-0.176
TGFBR2	0.458	1	-0.0175	-0.0528	0.0708
PCBP1	0.458	1	-0.132	-0.142	0.016
PFKFB2	0.458	1	-0.139	-0.142	-0.226
RAD21	0.397	0.995	-0.00493	-0.0124	-0.0131
CDK3	0.458	1	-0.0596	-0.134	-0.000201
CEP290	0.458	1	-0.162	-0.142	-0.0203
PRKCSH	-0.366	0.929	-0.193	-0.203	0.0313
LMBR1	0.458	1	-0.0566	-0.142	-0.0588
TAB1	0.458	1	-0.162	-0.142	-0.119
MYH10	0.215	0.979	-0.0114	-0.16	-0.0792
ERN2	0.458	1	-0.144	-0.142	-0.0782
CDKN1A	0.458	1	-0.0973	-0.142	-0.0193
NME4	0.458	1	-0.162	-0.142	-0.208
TSSK4	0.458	1	-0.162	-0.142	-0.0449
GUCY2F	0.458	1	-0.0863	-0.142	-0.0417
SYNCRIP	-0.512	0.917	0.134	0.0438	0.0497
IP6K1	0.458	1	-0.00807	0.0169	0.0283
CHEK2	0.458	1	-0.0144	-0.000312	0.118
MARK2	0.458	1	-0.0636	-0.142	0.0296

Records listed so far whose target name starts with P or p (6):
gene	viability robust z-score, no drug	viability vs non-targeting pool, no drug	synergy score with BYL719	synergy score with cetuximab	synergy score with trametinib
PACSIN1	0.458	1	-0.162	-0.142	-0.105
PRPS2	0.458	1	0.0484	0.0278	0.0572
PRPS1L1	0.458	1	-0.101	-0.142	-0.0439
PCBP1	0.458	1	-0.132	-0.142	0.016
PFKFB2	0.458	1	-0.139	-0.142	-0.226
PRKCSH	-0.366	0.929	-0.193	-0.203	0.0313
